Measurements reported in PubChem BioAssay AID1224827 (NIAID, 2016)

- Assay: 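Retest primary hits on a TNF reporter with six siRNAs per gene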 (follow-up of hits)
- System: RAW264.7 G9 mouse macrophage reporter clone
- Reagents: single siRNA against mouse genes, 100 nM siRNA
- Time to read-out: siRNA for 2 days, then LPS about 16 h
- Conditions: bacterial lipopolysaccharide (LPS), 10 ng/ml, cells fixed after overnight (about 16 h) stimulation
- Measurement: 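TNF promoter reporter red fluorescence in nuclei, background subtracted, normalised per plate and to non-targeting control siRNA, as z-scores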
- Reading the numbers: TNF reporter z-score, mean and TNF reporter z-score: higher = stronger Tnf promoter reporter signal; gene median z, three same-vendor siRNAs: higher = stronger Tnf reporter signal for the gene
- Call rule: 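Active siRNA: replicate-mean z-score of 2 or more, or -2 or less; no calls for control wells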
The deposit covers about 3,800 reagents; this is an unselected part. Of all reagents, about 2,200 (57%) were called active. 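Active means a strong reporter change in either direction; calls are per siRNA, not per gene; qiagen siRNAs gave weaker effects.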 Entries without a mark were called inactive. The numbers tell different reagents against one gene apart.

| gene | siRNA no. | TNF reporter z-score, mean | gene median z, three same-vendor siRNAs | TNF reporter z-score, repeat 1 | TNF reporter z-score, repeat 2 |
| --- | --- | --- | --- | --- | --- |
| Cdx1 | 1 | -3.79 (active) | -4.49 | -4.05 | -3.52 |
| Cdx1 | 2 | -5.13 (active) | -4.49 | -4.8 | -5.46 |
| Cdx1 | 3 | -5.21 (active) | -4.49 | -6.24 | -4.18 |
| Cdx1 | 4 | 4.6 (active) | 1.12 | 7.92 | 1.27 |
| Cdx1 | 5 | 3.38 (active) | 1.12 | 5.79 | 0.977 |
| Cdx1 | 6 | -1.58 | 1.12 | -1.12 | -2.03 |
| Rab7 | 1 | 0.765 | -1.65 | -0.149 | 1.68 |
| Rab7 | 2 | -1.65 | -1.65 | -2.26 | -1.05 |
| Rab7 | 3 | -5.51 (active) | -1.65 | -5.72 | -5.3 |
| Rab7 | 4 | 0.705 | -0.381 | 1.88 | -0.467 |
| Rab7 | 5 | -0.223 | -0.381 | -0.294 | -0.151 |
| Rab7 | 6 | -2.81 (active) | -0.381 | -3.01 | -2.61 |

Hits (from the list above):
| gene | siRNA no. | TNF reporter z-score, mean | gene median z, three same-vendor siRNAs | TNF reporter z-score, repeat 1 | TNF reporter z-score, repeat 2 |
| --- | --- | --- | --- | --- | --- |
| Cdx1 | 1 | -3.79 (active) | -4.49 | -4.05 | -3.52 |
| Cdx1 | 2 | -5.13 (active) | -4.49 | -4.8 | -5.46 |
| Cdx1 | 3 | -5.21 (active) | -4.49 | -6.24 | -4.18 |
| Cdx1 | 4 | 4.6 (active) | 1.12 | 7.92 | 1.27 |
| Cdx1 | 5 | 3.38 (active) | 1.12 | 5.79 | 0.977 |
| Rab7 | 3 | -5.51 (active) | -1.65 | -5.72 | -5.3 |
| Rab7 | 6 | -2.81 (active) | -0.381 | -3.01 | -2.61 |

Next entries:
| gene | siRNA no. | TNF reporter z-score, mean | gene median z, three same-vendor siRNAs | TNF reporter z-score, repeat 1 | TNF reporter z-score, repeat 2 |
| --- | --- | --- | --- | --- | --- |
| Mrps23 | 1 | 0.758 | -0.687 | 0.761 | 0.755 |
| Mrps23 | 2 | -0.687 | -0.687 | -0.919 | -0.455 |
| Mrps23 | 3 | -4.69 (active) | -0.687 | -4.4 | -4.98 |
| Mrps23 | 4 | 1.92 | -1 | 3.52 | 0.31 |
| Mrps23 | 5 | -1.45 | -1 | -2.25 | -0.659 |
| Mrps23 | 6 | -1.75 | -1 | -1.35 | -2.16 |
| Numbl | 1 | -2.45 (active) | -3.09 | -0.909 | -3.98 |
| Numbl | 2 | -3.09 (active) | -3.09 | -3.99 | -2.19 |
| Numbl | 3 | -3.41 (active) | -3.09 | -4.69 | -2.12 |
| Numbl | 4 | 4.45 (active) | 1.12 | 7.7 | 1.21 |
| Numbl | 5 | 3.5 (active) | 1.12 | 5.98 | 1.03 |
| Numbl | 6 | -2.87 (active) | 1.12 | -2.94 | -2.8 |
